Data as given in PubChem BioAssay AID686943 (Drosophila RNAi Screening Center, 2013)
In all, the deposit lists about 23,000 reagents; this is an unselected part of those with a known target gene and a result. 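Extra replicates exist only for a retested subset of genes; insulin dose and duration not given; both raised and lowered dpERK matter.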 Names joined by + are all predicted targets of the reagent. The record does not give: the amount of reagent, the time to read-out.

- Assay: 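Knockdowns that increase or decrease active ERK after insulin receptor stimulation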 (primary screen)
- System: Drosophila S2R+ haemocyte-like cells expressing YFP-tagged ERK (Rolled)
- Reagent: long dsRNA against Drosophila genes
- Challenge: insulin stimulation versus unstimulated cells; dose and duration not given
- Read-out: 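Antibody staining for doubly phosphorylated ERK divided by ERK-YFP signal, as plate z-scores, in insulin-treated and untreated cells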
- Direction: replicate 1, z-score of dpERK with insulin and replicate 2, z-score of dpERK with insulin: higher = more active ERK per ERK-YFP after insulin; replicate 1, z-score of dpERK under basal conditions: higher = more basal active ERK per ERK-YFP; replicate 1, z-score of ERK-YFP with insulin: higher = more YFP-tagged ERK signal

replicate 1, z-score of dpERK with insulin	replicate 2, z-score of dpERK with insulin	replicate 1, z-score of dpERK under basal conditions	replicate 1, z-score of ERK-YFP with insulin	gene knocked down	DRSC id
0.77	-0.21	-0.05	0.2	CG43345 + CG43346	DRSC03164
0.59	0.32	0.7	0.41	Arl5	DRSC10785
-0.23	0.2	0.88	0.31	CG4666	DRSC18379
-0.31	-0.12	1.12	0.53	E(spl)m5-HLH	DRSC16695
0.22	-0.09	0.76	0.25	Def	DRSC07398
-0.08	-0.12	-0.34	0.46	CG13248	DRSC11696
0.19	-0.17	-1.54	0.23	CG5194	DRSC10492
12.9	1.46	1.23	-1.06	CG31102	DRSC14260
0.52	0.45	-0.02	0.75	Cpr30F	DRSC02908
-0.04	0.47	-0.06	1.33	mRpL28	DRSC02724
-0.18	-0.09	-0.14	1.32	wde	DRSC05955
-0.72	-0.44	1.23	-1.99	CR40282	DRSC07814
3.13	0.41	0.41	-0.32	CG40298	DRSC22274
0.57	0.11	-0.02	-1.89	PAN3	DRSC08190
-2.64	2.72	-2.67	2.11	Naa30A	DRSC18583
0.29	-0.23	-0.53	0.55	Polr1B	DRSC00780
0.92	0.22	-0.06	-0.23	Frq1	DRSC19961
-1.01	-1.95	1.27	0.62	Sardh	DRSC06981
0.26	0.58	1.24	-0.71	shakB	DRSC20420
0.89	0.08	0.91	0.05	shakB	DRSC20423
0.56	0.5	0.23	0.05	shakB	DRSC20492
1.05	-0.09	-0.67	0.42	shakB	DRSC20585
-1.09	-0.83	1.05	0.74	shakB	DRSC21445
0.62	0.23	0.25	1.92	shakB	DRSC22817
0.24	0.15	-2.24	-0.11	Polr1D + DCTN6-p27	DRSC02094
0.03	-0.26	-1.14	0.6	CG15403	DRSC00417
0.45	-0.79	-0.64	-0.58	CG2611	DRSC02710
-2.76	-2.03	-0.08	-1.07	CG10565	DRSC11620
-0.47	0.6	0.65	1.12	Chchd2	DRSC19931
1.31	-0.04	0.55	-0.08	fzr	DRSC18781
-0.94	0.37	-0.67	0.21	Nmdar1	DRSC12071
0.79	1.27	-0.14	-0.45	Nmdar1	DRSC12356
0.92	1.01	3.06	0.4	CG31988	DRSC22491
1.03	-0.5	-0.84	-0.8	CG34049	DRSC00104
0.44	0.63	-0.14	-0.18	CG13801	DRSC08335
-0.41	0	0.57	0.36	CG13616	DRSC14619
-0.44	-0.22	0.67	1.74	Fer2LCH	DRSC16672
-0.22	0.55	0.03	0.2	CG9550	DRSC03262
1.07	-0.44	1.76	-0.78	Csas	DRSC22390
0.24	0.24	0.51	0.71	Mnr	DRSC20549
1.54	0.55	0.51	-0.9	Mnr	DRSC20550
0.58	-0.1	-1.19	0.27	Mnr	DRSC22441
0.25	0.14	1.2	0.03	asRNA:CR43463 + Pgant35A	DRSC03557
-1.66	-2.43	-2.93	-1.55	par-1	DRSC05792
0.02	0.41	0.55	0.23	par-1	DRSC06098
-0.21	0.29	1.01	0.29	par-1	DRSC06616
-1.39	-1.27	-0.87	0.61	par-1	DRSC07660
-0.18	0.44	1.03	0.19	par-1	DRSC07661
0.1	-0.67	-0.72	-0.44	Nadk2	DRSC07072
0.36	0.47	0.97	0.41	CG14720	DRSC14942
-0.26	0.16	-0.69	-0.72	ReepA	DRSC04572
0.02	0.54	-0.33	-0.15	ReepA	DRSC22475
-0.12	0.01	0.72	0.55	cN-IIIB	DRSC04359
-0.81	-0.84	0.65	0.02	CG9147	DRSC03147
0.38	0.41	-0.08	0.14	PGRP-SA	DRSC19420
-0.3	-1.24	-0.86	0.08	DUBAI + Tmem18	DRSC05344
0.32	0.34	-0.03	-0.05	Elo68beta	DRSC09860
0.23	0.26	-0.7	-1.6	alpha-Man-Ic	DRSC21674
-0.33	0.07	2.32	1.38	Elal	DRSC16662
0.54	0.62	-0.75	0.47	CG12567	DRSC20845
-0.5	-0.64	1.34	0.15	olf186-M	DRSC07657
-1.97	-2.76	-2.13	4.2	CG34376	DRSC14695
0.48	0.07	0.84	0.12	CG34376	DRSC14696
1.18	-1.03	0.81	0.62	CG34376	DRSC14701
0.39	0.05	-0.23	1.56	B52	DRSC14121
-0.14	1.23	0.54	-0.26	CG9855	DRSC12344
0.04	0.86	-0.08	0.4	Gr58a	DRSC03910
-1.63	-0.64	1.37	-1.1	Prim2	DRSC11610
-0.44	-0.03	-0.87	0.54	GstE7	DRSC06677
0.88	0.77	-0.23	-0.61	lncRNA:CR43434	DRSC13766
2.19	2.72	-1.55	0.12	S6k	DRSC11276
-3.04	1.09	0.03	-0.07	CG34235 + CG30058 + CG34312	DRSC22142
-2	-2.27	-0.07	-4.69	Spindly	DRSC00430
